Shown are survivors of the treated group in tumour-free mice. Counts of survivors are from the toxicity check (mostly the fifth day) where no day follows; animals may have died later. Schedules are NCI's codes, taken here to give the interval after Q, in days (D) or hours (H), and the number of doses after X. Counts like (3×) stand for listed records that agree. Some entries hold several experiments; the values are given in rising order.
Tested on: CD2F1 mice, nontumored, toxicity/survival
Assay: NCI In Vivo Anticancer Drug Screen. Data for tumor model Nontumored Animals (Toxicity Test) in CD2F1 (CDF1) mice

NC(CSC(c1ccccc1)(c1ccccc1)c1ccccc1)C(=O)O (stereo not drawn)
survivor count (dose: 3.9 mg/kg/injection, schedule: Q01DX009 (ip), vehicle: clinical formulation): 8 of 8
survivor count (dose: 5.0 mg/kg/injection, schedule: Q03HX024 (ip), vehicle: water): 8 of 8 (2×)
survivor count (dose: 7.8 mg/kg/injection, schedule: Q01DX009 (ip), vehicle: clinical formulation): 8 of 8
survivor count (dose: 10.0 mg/kg/injection, schedule: Q01DX009 (ip), vehicle: water): 8 of 8 (2×)
survivor count (dose: 10.0 mg/kg/injection, schedule: Q03HX008 (ip), vehicle: water): 8 of 8
survivor count (dose: 10.0 mg/kg/injection, schedule: Q03HX016 (ip), vehicle: water): 8 of 8
survivor count (dose: 10.0 mg/kg/injection, schedule: Q03HX024 (ip), vehicle: water): 8 of 8 (2×)
survivor count (dose: 10.0 mg/kg/injection, schedule: Q04DX003 (ip), vehicle: water): 8 of 8
survivor count (dose: 15.6 mg/kg/injection, schedule: Q01DX009 (ip), vehicle: clinical formulation): 8 of 8
survivor count (dose: 15.6 mg/kg/injection, schedule: Q03HX024 (oral), vehicle: clinical formulation): 8 of 8
survivor count (dose: 20.0 mg/kg/injection, schedule: Q01DX009 (ip), vehicle: water): 8 of 8 (2×)
survivor count (dose: 20.0 mg/kg/injection, schedule: Q01DX009 (oral), vehicle: water): 8 of 8
survivor count (dose: 20.0 mg/kg/injection, schedule: Q01DX009 (sc), vehicle: water): 8 of 8
survivor count (dose: 20.0 mg/kg/injection, schedule: Q03HX008 (ip), vehicle: water): 8 of 8
survivor count (dose: 20.0 mg/kg/injection, schedule: Q03HX016 (ip), vehicle: water): 8 of 8
survivor count (dose: 20.0 mg/kg/injection, schedule: Q03HX024 (ip), vehicle: water): 8 of 8 (2×)
survivor count (dose: 20.0 mg/kg/injection, schedule: Q04DX003 (ip), vehicle: water): 8 of 8
survivor count (dose: 31.3 mg/kg/injection, schedule: Q01DX009 (ip), vehicle: clinical formulation): 8 of 8
survivor count (dose: 31.3 mg/kg/injection, schedule: Q01DX009 (oral), vehicle: clinical formulation): 8 of 8
survivor count (dose: 31.3 mg/kg/injection, schedule: Q03HX008 (oral), vehicle: clinical formulation): 8 of 8
survivor count (dose: 31.3 mg/kg/injection, schedule: Q03HX016 (oral), vehicle: clinical formulation): 8 of 8
survivor count (dose: 31.3 mg/kg/injection, schedule: Q03HX024 (oral), vehicle: clinical formulation): 8 of 8
survivor count (dose: 40.0 mg/kg/injection, schedule: Q01DX009 (ip), vehicle: water): 7 of 8 and 8 of 8
survivor count (dose: 40.0 mg/kg/injection, schedule: Q01DX009 (oral), vehicle: water): 8 of 8 (2×)
survivor count (dose: 40.0 mg/kg/injection, schedule: Q01DX009 (sc), vehicle: water): 8 of 8
survivor count (dose: 40.0 mg/kg/injection, schedule: Q03HX008 (ip), vehicle: water): 5 of 8
survivor count (dose: 40.0 mg/kg/injection, schedule: Q03HX016 (ip), vehicle: water): 5 of 8
survivor count (dose: 40.0 mg/kg/injection, schedule: Q03HX024 (ip), vehicle: water): 5 of 8 (2×)
survivor count (dose: 40.0 mg/kg/injection, schedule: Q04DX003 (ip), vehicle: water): 8 of 8 (2×)
survivor count (dose: 62.5 mg/kg/injection, schedule: Q01DX009 (ip), vehicle: clinical formulation): 8 of 8
survivor count (dose: 62.5 mg/kg/injection, schedule: Q01DX009 (oral), vehicle: clinical formulation): 8 of 8
survivor count (dose: 62.5 mg/kg/injection, schedule: Q03HX008 (oral), vehicle: clinical formulation): 8 of 8
survivor count (dose: 62.5 mg/kg/injection, schedule: Q03HX016 (oral), vehicle: clinical formulation): 8 of 8
survivor count (dose: 62.5 mg/kg/injection, schedule: Q03HX024 (oral), vehicle: clinical formulation): 8 of 8
survivor count (dose: 80.0 mg/kg/injection, schedule: Q01DX001 (ip), vehicle: water): 7 of 8
survivor count (dose: 80.0 mg/kg/injection, schedule: Q01DX009 (ip), vehicle: water): 2 of 8 and 3 of 6
survivor count (dose: 80.0 mg/kg/injection, schedule: Q01DX009 (oral), vehicle: water): 8 of 8 (2×)
survivor count (dose: 80.0 mg/kg/injection, schedule: Q01DX009 (sc), vehicle: water): 8 of 8
survivor count (dose: 80.0 mg/kg/injection, schedule: Q03HX008 (ip), vehicle: water): 0 of 8
survivor count (dose: 80.0 mg/kg/injection, schedule: Q03HX016 (ip), vehicle: water): 0 of 8
survivor count (dose: 80.0 mg/kg/injection, schedule: Q04DX003 (ip), vehicle: water): 6 of 8 and 8 of 8
survivor count (dose: 80.0 mg/kg/injection, schedule: Q08DX002 (ip), vehicle: water): 6 of 8
survivor count (dose: 125.0 mg/kg/injection, schedule: Q01DX009 (oral), vehicle: clinical formulation): 8 of 8
survivor count (dose: 125.0 mg/kg/injection, schedule: Q03HX008 (oral), vehicle: clinical formulation): 8 of 8
survivor count (dose: 125.0 mg/kg/injection, schedule: Q03HX016 (oral), vehicle: clinical formulation): 7 of 8
survivor count (dose: 125.0 mg/kg/injection, schedule: Q03HX024 (oral), vehicle: clinical formulation): 8 of 8
survivor count (dose: 125.0 mg/kg/injection, schedule: Q04DX003 (oral), vehicle: clinical formulation): 8 of 8
survivor count (dose: 160.0 mg/kg/injection, schedule: Q01DX001 (ip), vehicle: water): 1 of 8
survivor count (dose: 160.0 mg/kg/injection, schedule: Q01DX001 (oral), vehicle: water): 8 of 8
survivor count (dose: 160.0 mg/kg/injection, schedule: Q01DX001 (sc), vehicle: water): 7 of 8
survivor count (dose: 160.0 mg/kg/injection, schedule: Q01DX009 (ip), vehicle: water): 0 of 8
survivor count (dose: 160.0 mg/kg/injection, schedule: Q01DX009 (oral), vehicle: water): 8 of 8 (2×)
survivor count (dose: 160.0 mg/kg/injection, schedule: Q01DX009 (sc), vehicle: water): 7 of 8
survivor count (dose: 160.0 mg/kg/injection, schedule: Q04DX003 (ip), vehicle: water): 0 of 8
survivor count (dose: 160.0 mg/kg/injection, schedule: Q08DX002 (ip), vehicle: water): 0 of 8
survivor count (dose: 250.0 mg/kg/injection, schedule: Q01DX001 (oral), vehicle: clinical formulation): 8 of 8
survivor count (dose: 250.0 mg/kg/injection, schedule: Q01DX009 (oral), vehicle: clinical formulation): 8 of 8
survivor count (dose: 250.0 mg/kg/injection, schedule: Q03HX008 (oral), vehicle: clinical formulation): 6 of 8
survivor count (dose: 250.0 mg/kg/injection, schedule: Q03HX016 (oral), vehicle: clinical formulation): 7 of 8
survivor count (dose: 250.0 mg/kg/injection, schedule: Q03HX024 (oral), vehicle: clinical formulation): 7 of 8
survivor count (dose: 250.0 mg/kg/injection, schedule: Q04DX003 (oral), vehicle: clinical formulation): 8 of 8
survivor count (dose: 250.0 mg/kg/injection, schedule: Q08DX002 (oral), vehicle: clinical formulation): 8 of 8
survivor count (dose: 320.0 mg/kg/injection, schedule: Q01DX001 (ip), vehicle: water): 0 of 8
survivor count (dose: 320.0 mg/kg/injection, schedule: Q01DX001 (oral), vehicle: water): 7 of 8
survivor count (dose: 320.0 mg/kg/injection, schedule: Q01DX001 (sc), vehicle: water): 8 of 8
survivor count (dose: 320.0 mg/kg/injection, schedule: Q01DX009 (oral), vehicle: water): 7 of 8 and 8 of 8
survivor count (dose: 320.0 mg/kg/injection, schedule: Q04DX003 (ip), vehicle: water): 0 of 8
survivor count (dose: 320.0 mg/kg/injection, schedule: Q08DX002 (ip), vehicle: water): 0 of 8
survivor count (dose: 500.0 mg/kg/injection, schedule: Q01DX001 (oral), vehicle: clinical formulation): 8 of 8
survivor count (dose: 500.0 mg/kg/injection, schedule: Q01DX009 (oral), vehicle: clinical formulation): 8 of 8
survivor count (dose: 500.0 mg/kg/injection, schedule: Q03HX008 (oral), vehicle: clinical formulation): 5 of 8
survivor count (dose: 500.0 mg/kg/injection, schedule: Q03HX016 (oral), vehicle: clinical formulation): 3 of 8
survivor count (dose: 500.0 mg/kg/injection, schedule: Q04DX003 (oral), vehicle: clinical formulation): 8 of 8
survivor count (dose: 500.0 mg/kg/injection, schedule: Q08DX002 (oral), vehicle: clinical formulation): 8 of 8
survivor count (dose: 640.0 mg/kg/injection, schedule: Q01DX001 (ip), vehicle: water): 0 of 8
survivor count (dose: 640.0 mg/kg/injection, schedule: Q01DX001 (oral), vehicle: water): 8 of 8
survivor count (dose: 640.0 mg/kg/injection, schedule: Q01DX001 (sc), vehicle: water): 8 of 8
survivor count (dose: 640.0 mg/kg/injection, schedule: Q08DX002 (ip), vehicle: water): 0 of 8
survivor count (dose: 1000.0 mg/kg/injection, schedule: Q01DX001 (oral), vehicle: clinical formulation): 8 of 8
survivor count (dose: 1000.0 mg/kg/injection, schedule: Q04DX003 (oral), vehicle: clinical formulation): 8 of 8
survivor count (dose: 1000.0 mg/kg/injection, schedule: Q08DX002 (oral), vehicle: clinical formulation): 8 of 8
survivor count (dose: 1280.0 mg/kg/injection, schedule: Q01DX001 (oral), vehicle: water): 7 of 8
survivor count (dose: 1280.0 mg/kg/injection, schedule: Q01DX001 (sc), vehicle: water): 1 of 8
survivor count (dose: 2000.0 mg/kg/injection, schedule: Q01DX001 (oral), vehicle: clinical formulation): 8 of 8
survivor count (dose: 2000.0 mg/kg/injection, schedule: Q04DX003 (oral), vehicle: clinical formulation): 7 of 8
survivor count (dose: 2000.0 mg/kg/injection, schedule: Q08DX002 (oral), vehicle: clinical formulation): 8 of 8
survivor count (dose: 4000.0 mg/kg/injection, schedule: Q01DX001 (oral), vehicle: clinical formulation): 8 of 8
survivor count (dose: 4000.0 mg/kg/injection, schedule: Q08DX002 (oral), vehicle: clinical formulation): 7 of 8

From PubChem BioAssay AID188 (DTP/NCI, 2004)
